From article PMC8834516
No constants are given. Whether binding was seen depends on the method and setting. Binding seen in cells or lysates may run through a third protein. These calls come from enrichment with a bait or labelling near it, and not all partners need be listed.

T1: Transglutaminase-2 (mouse (endogenous in mouse brain)) (UniProt P21981)
T1 sequence: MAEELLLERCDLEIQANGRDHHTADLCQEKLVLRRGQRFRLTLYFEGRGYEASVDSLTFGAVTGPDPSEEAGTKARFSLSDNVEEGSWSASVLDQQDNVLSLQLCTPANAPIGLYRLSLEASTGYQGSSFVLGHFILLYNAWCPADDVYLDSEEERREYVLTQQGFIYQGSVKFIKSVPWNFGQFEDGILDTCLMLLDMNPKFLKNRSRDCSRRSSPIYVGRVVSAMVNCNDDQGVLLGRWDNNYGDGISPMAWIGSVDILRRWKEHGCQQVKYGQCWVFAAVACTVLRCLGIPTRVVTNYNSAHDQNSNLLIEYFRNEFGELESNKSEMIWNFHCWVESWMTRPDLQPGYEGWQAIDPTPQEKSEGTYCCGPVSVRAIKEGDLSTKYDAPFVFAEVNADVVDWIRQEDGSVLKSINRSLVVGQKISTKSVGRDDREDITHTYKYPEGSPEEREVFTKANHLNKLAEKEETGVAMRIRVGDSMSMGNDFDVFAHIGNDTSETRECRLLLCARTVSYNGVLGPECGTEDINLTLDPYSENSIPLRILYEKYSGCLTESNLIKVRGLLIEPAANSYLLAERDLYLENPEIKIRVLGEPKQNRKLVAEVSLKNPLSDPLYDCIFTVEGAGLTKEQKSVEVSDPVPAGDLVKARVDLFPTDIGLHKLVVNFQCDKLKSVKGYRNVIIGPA


Target: T1, Transglutaminase-2 (mouse (endogenous in mouse brain))
Experiment: affinity purification with mass spectrometry; TG2 immunoprecipitated from total brain homogenates of 18-month-old WT and APP23 mice with anti-TG2 antibody IA12 crosslinked to protein A/G magnetic beads, 22 h at 4 °C; IP lysis buffer 25 mM Tris pH 7.4, 150 mM NaCl, 1 mM EDTA, 1% NP40, 5% glycerol; on-bead trypsin digest, SWATH MS; TG2−/− cohorts as background, z-test p ≤ 0.05, n = 5 per cohort

| Binder | binding |
| --- | --- |
| Neuronal pentraxin-1 (protein, UniProt Q62443 23-432) QDFGPTRFICTSVPVDADMCAASVAAGGAEELRSNVLQLRETVLQQKETILSQKETIRELTTKLGRCESQSTLDSGPGEARSGGGRKQPGSGKNTMGDLSRTPAAETLSQLGQTLQSLKTRLENLEQYSRLNSSSQTNSLKDLLQSKIDDLERQVLSRVNTLEEGKGGPKNDTEERAKIESALTSLHQRISELEKGQKDNRPGDKFQLTFPLRTNYMYAKVKKSLPEMYAFTVCMWLKSSAAPGVGTPFSYAVPGQANELVLIEWGNNPMEILINDKVAKLPFVINDGKWHHICVTWTTRDGVWEAYQDGTQGGNGENLAPYHPIKPQGVLVLGQEQDTLGGGFDATQAFVGELAHFNIWDRKLTPGEVYNLATCSSKALSGNVIAWAESQIEIFGGATKWTFEACRQIN | binds |
| Lysophosphatidylcholine acyltransferase 1 (protein, UniProt Q3TFD2 1-534) MRLRGRGPRAAPSSSSGAGDARRLAPPGRNPFVHELRLSALQKAQVAFMTLTLFPIRLLFAAFMMLLAWPFALLASLGPPDKEPEQPLALWRKVVDFLLKAIMRTMWFAGGFHRVAVKGRQALPTEAAILTLAPHSSYFDAIPVTMTMSSIVMKAESRDIPIWGTLIRYIRPVFVSRSDQDSRRKTVEEIKRRAQSNGKWPQIMIFPEGTCTNRTCLITFKPGAFIPGVPVQPVVLRYPNKLDTITWTWQGPGALKILWLTLCQFQNQVEIEFLPVYCPSEEEKRNPALYASNVRRVMAKALGVSVTDYTFEDCQLALAEGQLRLPADTCLLEFARLVRGLGLKPENLEKDLDKYSESARMKRGEKIRLPEFAAYLEVPVSDALEDMFSLFDESGGGEIDLREYVVALSVVCRPSQTLATIQLAFKMYGSPEDGSIDEANLSCILKTALGVSELTVTDLFQAIDQEDKGRITFDDFCGFAEMYPDYAEDYLYPDQTHFDSCAQTPPAPTPNGFCIDFSPENSDFGRKNSCKKAD | binds |
| Cell adhesion molecule 2 (protein, UniProt Q8BLQ9 25-435) QFPLTQNVTVVEGGTAILTCRVDQNDNTSLQWSNPAQQTLYFDDKKALRDNRIELVRASWHELSISVSDVSLSDEGQYTCSLFTMPVKTSKAYLTVLGVPEKPQISGFSSPVMEGDLMQLTCKTSGSKPAADIRWFKNDKEIKDVKYLKEEDANRKTFTVSSTLDFRVDRSDDGVAVICRVDHESLNATPQVAMQVLEIHYTPSVKIIPSTPFPQEGQALTLTCESKGKPLPEPVLWTKDGAELPDPDRMVVSGRELNILFLNKTDNGTYRCEATNTIGQSSAEYVLIVHDVPNTLLPTTIIPSLTTAPVTTSVTITTSPSTSASSSSRRDPNSLAGQNGPDHALIGGIVAVVVFVTLCSIFLLGRYLARHKGTYLTNEAKGAEDAPDADTAIINAEGSQVNAEEKKEYFI | binds |

Further lines, results first:

| binding | Binder |
| --- | --- |
| binds | Rho GDP-dissociation inhibitor 1 (protein, UniProt Q99PT1 1-204) MAEQEPTAEQLAQIAAENEEDEHSVNYKPPAQKSIQEIQELDKDDESLRKYKEALLGRVAVSADPNVPNVIVTRLTLVCSTAPGPLELDLTGDLESFKKQSFVLKEGVEYRIKISFRVNREIVSGMKYIQHTYRKGVKIDKTDYMVGSYGPRAEEYEFLTPMEEAPKGMLARGSYNIKSRFTDDDKTDHLSWEWNLTIKKEWKD |
| binds | Protein disulfide-isomerase A6 (protein, UniProt Q922R8 20-440) LYSSSDDVIELTPSNFNREVIQSDGLWLVEFYAPWCGHCQRLTPEWKKAATALKDVVKVGAVNADKHQSLGGQYGVQGFPTIKIFGANKNKPEDYQGGRTGEAIVDAALSALRQLVKDRLGGRSGGYSSGKQGRGDSSSKKDVVELTDDTFDKNVLDSEDVWMVEFYAPWCGHCKNLEPEWAAAATEVKEQTKGKVKLAAVDATVNQVLASRYGIKGFPTIKIFQKGESPVDYDGGRTRSDIVSRALDLFSDNAPPPELLEIINEDIAKKTCEEHQLCVVAVLPHILDTGAAGRNSYLEVLLKLADKYKKKMWGWLWTEAGAQYELENALGIGGFGYPAMAAINARKMKFALLKGSFSEQGINEFLRELSFGRGSTAPVGGGSFPTITPREPWDGKDGELPVEDDIDLSDVELDDLEKDEL |
| binds | Protein LYRIC (protein, UniProt Q80WJ7 1-579) MAARSWQDELAQQAEEGSARLRELLSVGLGFLRTELGLDLGLEPKRYPGWVILVGTGALGLLLLFLLGYGWAAACAGARKKRRSPPRKREEAAPPTPAPDDLAQLKNLRSEEQKKKNRKKLPEKPKPNGRTVEVPEDEVVRNPRSITAKQAPETDKKNEKSKKNKKKSKSDAKAVQNSSRHDGKEVDEGAWETKISHREKRQQRKRDKVLTDSGSLDSTIPGIENIITVTTEQLTTASFPVGSKKNKGDSHLNVQVSNFKSGKGDSTLQVSSRLNENLTVNGGGWSEKSVKLSSQLSEEKWNSVPPASAGKRKTEPSAWTQDTGDTNANGKDWGRNWSDRSIFSGIGSTAEPVSQSTTSDYQWDVSRNQPYIDDEWSGLNGLSSADPSSDWNAPAEEWGNWVDEDRASLLKSQEPISNDQKVSDDDKEKGEGALPTGKSKKKKKKKKKQGEDNSHTQDTEDLEKDTREELPVNTSKARPKQEKACSLKTMSTSDPAEVLIKNSQPVKTLPPAISAEPSITLSKGDSDNSSSQVPPMLQDTDKPKSNAKQNSVPPSQTKSETNWESPKQIKKKKKARRET |
